At least one structure is not confirmed: it was looked up by name or label, or the drawing left a doubt.
What was measured:
[1] = cited from earlier work
[2] = Singlet oxygen generation (ABDA photodecomposition, UV-vis); conditions: 632 nm, 5 mW/cm^2, ABDA

For `C=CC1=C(C)c2cc3[nH]c(cc4nc(cc5[nH]c(cc1n2)c(C)c5CCC(=O)O)C(CCC(=O)O)=C4C)c(C)c3C=C` [PpIX, protoporphyrin IX], the peak extinction coefficient ([1]; Ce6 at 667 nm, PpIX at 631 nm) is listed as 5,186, the “singlet oxygen quantum yield” value [1] is listed as 0.54 and the singlet oxygen production [2] is listed as “significant singlet oxygen production”.

Reference: US11446391B2, “Amphiphilic dye-coated inorganic nanoparticle clusters” (THE TRUSTEES OF THE UNIVERSITY OF PENNSYLVANIA, priority 2017, dated 2022)
